Experimental data taken from US5763400A, “Ecdysis-triggering hormone compositions” (priority 1996, dated 1998).
Part of at least one peptide drawing is inferred or uncertain, most often the ends. Ends that are not written are not given here.

Tests used:
larval insects = test: Injection of synthetic Bom-ETH forms into larval insects; type: in vivo, Bombyx mori; conditions: free acid at doses much higher than the amidated form
Procedure: Synthetic Bom-ETH was prepared according to standard solid phase peptide synthesis methods by Research Genetics, Inc. (Birmingham, AL) to provide a peptide having the amino acid sequence of the 23 mer. Both the amidated and free --COOH terminal forms were prepared.

[1] = tested on: pharate fourth instar Manduca sexta larvae; test: Injection into pharate fourth instar larvae (liquid-filled head capsule stage), carboxy-terminus study; type: in vivo; conditions: 40 pmol
Procedure: The amidated and acid form of the 26 mer of SEQ ID NO:3 was prepared using a solid state synthesizer. This procedure is the same as that described at example 7. The amidated and acid forms of ETH used in the present study were synthesized by Research Genetics Corporation using these standard protocols (5 mg. each of the amidated-ETH and the acid-ETH).

Sequence	biological activity upon injection (larval insects)	behavioral response [1]
SNEAFDEDVMGYVIKSNKNIPRM [Bom-ETH free acid form]	biologically inactive	
SNEAISPFDQGMMGYVIKTNKNIPRM [ETH-acid]		no discernible behavioral response
